This is one part of the list.
B1: il10ra_site1_normal_mot_HHH_b2_00277_af2_000000172_0001_1_17_H_._HHH_b1_03809_0001_0000700027_0000001_0_af2pred_0001 (protein)
chain: SSSSSSDIEEKVKELLEEAERIDDPERLSYVLIRAFALATKNNNEELRKEVEEVAKKLVSSSSSS
B2: il10ra_site1_normal_mot_HHH_b1_06240_000000244_0001_42_57_H_._ems_3hC_645_0001_0001_0000200008_0000001_0 (protein)
chain: SSSEEEVEELVKEVREVAEERGDPKARAAARFYEALARDARERNDEEALKQVSLALRAFLDSFSS
B3: il10ra_site1_sap_33_mot_104c758fc23488854646035ccb2100c6_0001_000000282_0001_15_29_H_._4a1b898246c0e7e220e534f5fba321b4_0001_0001_0000300027_0000002_0_0001 (protein)
chain: SSSSDEEDQEVLELSKEIFRLALRGNEEEARELLEKAIELAREIGDERMLKVLEDLLRVLSSSSS
B4: il10ra_site1_normal_mot_HHH_b2_07144_000000289_0001_1_18_H_._HHH_b2_03346_0001_0000400043_0000002_0_af2pred_0001 (protein)
chain: SSSSSSEAEQVYELSREILEVLAEGDEERAKELLEELEELAEESNDPLAEAILRALRSNLSSSSS
B5: il10ra_site1_normal_mot_HHH_b2_03183_af2_000000055_0001_40_56_H_._HHH_b2_02338_af2_0001_0000500011_0000001_0 (protein)
chain: SSSSSQMEELLRAAVILIEQALRFGDERAARLLIESAKMVAERLGDEETLEEIEELEKRVNSSSS
B6: il10ra_site1_normal_mot_HHH_b1_05609_af2_000000134_0001_1_18_H_._HHH_b1_01365_0001_0000100009_0000001_0 (protein)
chain: SSSSDEELEEVLRLSRRIFRLLLRGNEEEARELLEQAIELAREIGDERALRNLESLLQILSSSSS
B7: il10ra_site1_normal_mot_HHH_b1_05357_000000034_0001_23_39_H_._HHH_b1_04796_af2_0001_0000200012_0000001_0_af2pred_0001 (protein)
chain: SSSSSEEELEKLLEKVEELIEKNDPERAKEYIRRALHLAIELRDEHVLRKLLELWILVARLSSSS
B8: il10ra_site1_sap_8_mot_HHH_b2_03328_af2_000000127_0001_1_19_H_._HHH_b1_04080_0001_0000300038_0000001_0_0001 (protein)
chain: SSSSDEDWEEYRKLLQEFVEADHEGDEEELEELLKKLRELAEKANSDILRAQVEWLEELLSSSSS
B9: il10ra_site1_normal_mot_HHH_b1_06912_af2_000000235_0001_1_15_H_._HHH_b2_06035_af2_0001_0000200006_0000001_0_af2pred_0001 (protein)
chain: SSSSSDERAQEVLELIRKALEIDDPEEAQEVLEEALRIAEEANNITFRHIIELLLRELNSSSSSS
B10: il10ra_site1_sap_21_mot_7d06c54ffdcd64f04fd99e25e06e3333_0001_af2_000000000_0001_35_49_H_._036bed11a46af16b1bcff1c055f4941a_0001_0001_0000300008_0000001_0_0001 (protein)
chain: SSSDREEFNEIARKAVRLAFHLNDEETLRELWELIKRYIEEQDPRLLEELEELVEELERLYTSSS
B11: il10ra_site1_normal_mot_HHH_b1_06816_000000239_0001_1_19_H_._HHH_b1_01093_0001_0000300045_0000002_0 (protein)
chain: SSSSDEEFELAEEAIKQAIELYRNGNPEEAERLLREVIEELEELGNEAVVFSLRHLLRALRSSSS
B12: il10ra_site1_normal_mot_HHH_b1_06994_000000193_0001_40_55_H_._HHH_b1_03568_af2_0001_0000300012_0000001_0 (protein)
chain: SSSSQEEELAKALARLIKQALEHGDERAVRILLISLKLIAEELNDEELKEEIEQLERLLEELSSS
B13: il10ra_site1_sap_22_mot_HHH_b2_02053_af2_000000006_0001_3_19_H_._HHH_b1_00803_af2_0001_0000900077_0000001_0_0001_af2pred_0001 (protein)
chain: SSSSDVEEEIRELVERAEELAEQGNPREAAKLLIKAARLAAELGDPELARRIAELYAESLSSSSS
B14: il10ra_site1_sap_26_mot_HHH_b2_07145_000000168_0001_24_40_H_._HHH_b2_05804_0001_0000200020_0000001_0_0001 (protein)
chain: SSSSDQARELAEAALRLARQFDDPRNVEMMVLAVELLVEETGDPELEELLEEIRELLEELRSSSS
B15: il10ra_site1_normal_mot_HHH_b1_04275_000000150_0001_22_39_H_._HHH_b2_08116_af2_0001_0000400013_0000001_1 (protein)
chain: SSSSSDERQEALELAQEAFRALLRGDEEEAERLLREALELAERGNDERLARLIEILLHTLSSSSS
B16: il10ra_site1_sap_24_mot_HHH_b2_04680_000000215_0001_1_16_H_._HHH_b2_03951_af2_0001_0000500027_0000001_0_0001 (protein)
chain: SSSSSSSSEEEVEEILEEAEKVDDEEEASRILLEALELALQLQDPEALRLVWRVVHRFSSSSSSS
B17: il10ra_site1_sap_14_mot_HHH_b1_00456_000000263_0001_1_17_H_._HHH_b1_05223_0001_0000100007_0000001_0_0001_1_af2pred_dldesign_0_af2pred (protein)
chain: SSDYVAAAERVLTEEFEKAKAARDLEALRRLAHLAKAAAEIYQDPRLAAFAARLEAEAEALLSSS
B18: il10ra_site1_normal_mot_a6c796b944619e241e020fd597ddb6da_0001_af2_000000092_0001_15_31_H_._HHH_b1_07083_0001_0000200013_0000001_0_af2pred_0001 (protein)
chain: SSSSSSSEEVRARALVFMAKKASNPDAARIALEIALEIARKLNDEELVEEIEELLEEYSSSSSSS
B19: il10ra_site1_sap_19_mot_HHH_b2_01032_000000296_0001_1_18_H_._HHH_b2_05460_af2_0001_0000100004_0000002_0_0001_af2pred_dldesign_0_af2pred (protein)
chain: SSSSSSNLRQRARALYHFARLIKNPEARRLALEEALKVAKKAGDEELVKEIEAELAKVESSSSSS
B20: il10ra_site1_sap_7_mot_HHH_b1_03250_000000283_0001_1_15_H_._HHH_b1_01506_0001_0000100002_0000003_0_0001_af2pred_0001 (protein)
chain: SSSSSSEELKEVQKLIREAVQIEDPEEARKIAEEALELAKEANNELLRLIIEFLLEQLGSSSSSS
B21: il10ra_site1_normal_mot_HHH_b2_06602_000000226_0001_1_16_H_._HHH_b2_00812_0001_0000100003_0000001_0 (protein)
chain: SSSSSEEEAFQLAVQAYFALDQGDREEAEKLLEELRELVEELGDHNLEAYVMALEELVRELSSSS
B22: il10ra_site1_normal_mot_HHH_b1_02665_000000293_0001_1_18_H_._HHH_b2_02363_0001_0000500037_0000002_0 (protein)
chain: SSSSDELEELVEELRKLLEELGDRNAIFLLEQVLKLIEELNDPKLRERLEQLLRILERELSSSSS
B23: il10ra_site1_normal_mot_8756ee2cf497b5429c717dfc0c0bcfd6_0001_000000186_0001_1_13_H_._HHH_b2_02451_af2_0001_0000200003_0000002_0 (protein)
chain: SSSSDESQEVAEAIRKVAELLQEGDEEEAEELAEEALKIARELGNDVLVVQLEYLLKLAESSSSS
B24: il10ra_site1_sap_20_mot_HHH_b2_02053_af2_000000006_0001_3_19_H_._HHH_b1_02415_0001_0000100011_0000001_0_0001 (protein)
chain: SSSSSSDVEELLEEAQELAERGNPEEANKVLQEAVRAIYHLGDEELLQELWELVEKINSSSSSSS
B25: il10ra_site1_sap_17_mot_HHH_b1_04804_000000089_0001_44_57_H_._HHH_b1_06407_af2_0001_0000400025_0000001_0_0001 (protein)
chain: SSSSSQASQEAQRLLEEAAELLRNGNPEEAEKVAREALEVAEEGNNWAARFAIELLLRDIGSSSS
B26: il10ra_site1_sap_18_mot_HHH_b1_06788_af2_000000238_0001_19_36_H_._HHH_b2_05035_0001_0000300028_0000001_0_0001_af2pred_0001 (protein)
chain: SSSSSDAERAARSAVRAVRFLLELNDEERFEIALRVAKASAKDAGDEEVEEILEEIERRLSSSSS
B27: il10ra_site1_normal_mot_HHH_b2_08186_000000021_0001_43_56_H_._HHH_b1_06333_af2_0002_0000200009_0000001_0 (protein)
chain: SSSSDEKERVEELIEEAEKVYEEEKDPEKALEILLEALQLALEGNDPELLQELWKLLKELGSSSS
B28: il10ra_site1_normal_mot_HHH_b2_08144_af2_000000046_0001_38_52_H_._HHH_b1_04606_0001_0000200028_0000001_0 (protein)
chain: SSSSNEEHEELYRLSREAAELAAEGDEEEARELLEEAEELAKELGNRLFLIQLRFLLRLLSSSSS
B29: il10ra_site1_sap_20_mot_5aed09890fd46f02a60ca541bcb2e05a_0001_1_000000092_0001_15_31_H_._3e7f9dc7757c9be4a21a7eaad61dbf0f_0001_1_0001_0000100002_0000003_0_0001_ … (protein)
chain: SSSSDLEEEIEELREELREALERGDEELALRLLRRLLRLAQETNDRELLEELFEIARELASSSSS
B30: il10ra_site1_normal_mot_HHH_b2_01776_000000118_0001_38_52_H_._ems_3hC_921_0001_0001_0000100011_0000002_0 (protein)
chain: SSPEEAEKLLEEAEKLARELNDKNALFIVRQLKKLLKRAEELNDERAVELVLEVAKNLLEELESS
B31: il10ra_site1_sap_23_mot_HHH_b2_03240_000000221_0001_1_18_H_._HHH_b2_06996_0001_0000100001_0000001_0_0001 (protein)
chain: SSSSNVRERAARVAIEVLRIAFRRSDPEILREVWELFRRIIEEGDPELLEELEKLLEELRSSSSS
B32: il10ra_site1_sap_21_mot_HHH_b2_02694_000000228_0001_1_18_H_._HHH_b2_03245_af2_0001_0000400023_0000001_0_0001_af2pred_dldesign_0_af2pred (protein)
chain: SSSSDPEQEVVELIREVVRLKDAGKLEEAKEVLKKARELAEALGDAELIAAVEKVEKYVLSSSSS
B33: il10ra_site1_normal_mot_HHH_b2_02337_000000026_0001_38_52_H_._HHH_b2_04776_0001_0000200023_0000003_0 (protein)
chain: SSSSSSEEEEEIEELLEQLERAKSDEEISEVALRLVRLIWELNNQELLQRLWEIVKRLASSSSSS
B34: il10ra_site1_normal_mot_6bb093d23f5042b6c551c363657da53b_0001_1_000000153_0001_51_65_H_._cedd301b4a0c43ec11f1ac2dbd5fc5c2_0001_1_0001_0000400014_0000001_0_af2pr … (protein)
chain: SIAELIRLLTEDAADNPEALALVRDLARKYLSGTLKPEELKETTEKILELTKTPRREEILKLLEE
B35: il10ra_site1_normal_mot_HHH_b1_05326_000000242_0001_1_20_H_._HHH_b1_07949_af2_0001_0000600011_0000001_0 (protein)
chain: SSSSNDEALELSQEAFRLALRGDLEEALEVLEEAAEIAEKNGDERLLETIEELLKSIRRLLSSSS
B36: il10ra_site1_normal_mot_HHH_b2_00984_000000042_0001_1_20_H_._HHH_b1_02950_0001_0000600024_0000001_0 (protein)
chain: SSSSSTKFYELAQRALRFAFRLSDQETLQRIWELIKEYVEHGDPRIEEELEELLEELEERSSSSS
B37: il10ra_site1_normal_mot_HHH_b1_06798_000000292_0001_1_19_H_._HHH_b2_05133_0001_0000100004_0000001_0 (protein)
chain: SSSSTLEFSVKFALREAEELLEEGDPEKARIILERLLEHLKEAGDEELFEEVEHLLREVEGSSSS

Biological target: il10ra, Q13651
Assay: yeast display titration

Apparent Kd, inactive:
B1 no binding seen, B2 no binding seen, B3 no binding seen, B4 no binding seen, B5 no binding seen, B6 no binding seen, B7 no binding seen, B8 no binding seen, B9 no binding seen, B10 no binding seen, B11 no binding seen, B12 no binding seen, B13 no binding seen, B14 no binding seen, B15 no binding seen, B16 no binding seen, B17 no binding seen, B18 no binding seen, B19 no binding seen, B20 no binding seen, B21 no binding seen, B22 no binding seen, B23 no binding seen, B24 no binding seen, B25 no binding seen, B26 no binding seen, B27 no binding seen, B28 no binding seen, B29 no binding seen, B30 no binding seen, B31 no binding seen, B32 no binding seen, B33 no binding seen, B34 no binding seen, B35 no binding seen, B36 no binding seen, B37 no binding seen
